Here are results for seven molecules from article PMC10217546, “Antioxidant Activities of Dihydromyricetin Derivatives with Different Acyl Donor Chain Lengths Synthetized by Lipozyme TL IM” (Foods, 2023).

Molecules are shown by their SMILES.

A short description of the data set: Antioxidant activity in sunflower oil, induction time by Rancimat. To be noted: sunflower oil with 200 mg/kg antioxidant, 120 °C, air flow 20 L/h.
For the molecule `CC(=O)OC1C(=O)c2c(O)cc(O)cc2OC1c1cc(O)c(O)c(O)c1` (stereo not shown) [C2-DHM, 3-O-acetyl-DHM], the “induction time (Rancimat)” value came to 4.25 min. The figure for `CCCC(=O)OC1C(=O)c2c(O)cc(O)cc2OC1c1cc(O)c(O)c(O)c1` (stereo not shown) [C4-DHM, 3-O-butyryl-DHM] is 4.27 min; for `CCCCCC(=O)OC1C(=O)c2c(O)cc(O)cc2OC1c1cc(O)c(O)c(O)c1` (stereo not shown) [C6-DHM, 3-O-hexanoyl-DHM] it is 4.47 min; for `CCCCCCCC(=O)OC1C(=O)c2c(O)cc(O)cc2OC1c1cc(O)c(O)c(O)c1` (stereo not shown) [C8-DHM, 3-O-octanoyl-DHM] it is 4.60 min. Regarding `CCCCCCCCCCCC(=O)OC1C(=O)c2c(O)cc(O)cc2OC1c1cc(O)c(O)c(O)c1` (stereo not shown) [C12-DHM, 3-O-lauroyl-DHM], the “induction time (Rancimat)” value is listed as 2.71 min.

`O=C1c2c(O)cc(O)cc2O[C@H](c2cc(O)c(O)c(O)c2)[C@H]1O` [DHM, Dihydromyricetin]: the “induction time (Rancimat)” value is on record as 5.27 min.

On to `CC(C)(C)c1cc(O)ccc1O` [TBHQ, tert-butylhydroquinone, reference compound], for which the “induction time (Rancimat)” value turned out to be 6.22 min.
